{"source": "PubChem BioAssay AID504764 (Drosophila RNAi Screening Center, 2011)", "aim": "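Genes whose knock-down alters Notch-dependent transcription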 (primary screen)", "cell system": "Drosophila Kc167 cells", "reagent": "long dsRNA against Drosophila genes", "duration": "about 5 days (4 days dsRNA, then 24 h after transfection)", "conditions": "transfection of constitutively active membrane-tethered Notch lacking the extracellular domain, read 24 h later", "measured": "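Light from a Notch-responsive E(spl)m3 luciferase reporter under active Notch, with control-promoter and no-Notch reporter wells to normalise; raw counts from paired wells a and b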", "scale": "induced reporter light, run 1, well a and induced reporter light, run 1, well b: higher = more light from the Notch target reporter with active Notch; control promoter light, run 1, well a and control promoter light, run 1, well b: higher = more light from the viral control promoter (cell number, transfection, viability); uninduced reporter light, run 1, well a: higher = more light from the Notch target reporter without active Notch", "rule for the call": "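Hit if the duplicate-averaged log2 ratio of induced to control-promoter light gives a plate-wise z beyond ±2, or induced to uninduced beyond ±1.8; weak-control or discordant-duplicate wells dropped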", "meaning of the calls": "active = modifier hit (raised or lowered Notch signal); inactive = not a hit", "note": "In all, the deposit lists about 22,000 reagents; below is a random part of those with a known target gene and a result. In the full data, 403 (1.9%) were called active. 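Unnormalised raw counts per well; ratio z-scores behind the hit calls and whether each hit raises or lowers signal are not deposited.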 A number with no mark means an inactive call. Names joined by + are all predicted targets of the reagent. The record does not give: the amount of reagent."}
{"Target gene": "CG7386", "amplicon": "DRSC10832", "induced reporter light, run 1, well a": 2.32e5, "induced reporter light, run 1, well b": 1.42e5, "control promoter light, run 1, well a": 1.79e5, "control promoter light, run 1, well b": 1.87e5, "uninduced reporter light, run 1, well a": 7720}
{"Target gene": "CG13795", "amplicon": "DRSC02299", "induced reporter light, run 1, well a": 95550, "induced reporter light, run 1, well b": 1.29e5, "control promoter light, run 1, well a": 97540, "control promoter light, run 1, well b": 1.22e5, "uninduced reporter light, run 1, well a": 18215}
{"Target gene": "RpL34b (Ribosomal protein L34b)", "amplicon": "DRSC16475", "induced reporter light, run 1, well a": 89315, "induced reporter light, run 1, well b": 1.25e5, "control promoter light, run 1, well a": 1.25e5, "control promoter light, run 1, well b": 91945, "uninduced reporter light, run 1, well a": 4512}
{"Target gene": "Rad9", "amplicon": "DRSC11263", "induced reporter light, run 1, well a": 95480, "induced reporter light, run 1, well b": 1.16e5, "control promoter light, run 1, well a": 59770, "control promoter light, run 1, well b": 71615, "uninduced reporter light, run 1, well a": 7930}
{"Target gene": "CR18275 + CG13373", "amplicon": "DRSC17900", "induced reporter light, run 1, well a": 1.62e5, "induced reporter light, run 1, well b": 1.56e5, "control promoter light, run 1, well a": 1.86e5, "control promoter light, run 1, well b": 2.12e5, "uninduced reporter light, run 1, well a": 11480}
{"Target gene": "CG11590", "amplicon": "DRSC19411", "induced reporter light, run 1, well a": 1.02e5, "induced reporter light, run 1, well b": 81135, "control promoter light, run 1, well a": 1.02e5, "control promoter light, run 1, well b": 86350, "uninduced reporter light, run 1, well a": 12150}
{"Target gene": "CG34045", "amplicon": "DRSC05787", "induced reporter light, run 1, well a": 1.32e5, "induced reporter light, run 1, well b": 99525, "control promoter light, run 1, well a": 1.87e5, "control promoter light, run 1, well b": 1.58e5, "uninduced reporter light, run 1, well a": 8740}
{"Target gene": "CG42663", "amplicon": "DRSC06158", "induced reporter light, run 1, well a": 76480, "induced reporter light, run 1, well b": 78780, "control promoter light, run 1, well a": 1.29e5, "control promoter light, run 1, well b": 1.11e5, "uninduced reporter light, run 1, well a": 7055}
{"Target gene": "CG42663", "amplicon": "DRSC06404", "induced reporter light, run 1, well a": 87140, "induced reporter light, run 1, well b": 71485, "control promoter light, run 1, well a": 1.27e5, "control promoter light, run 1, well b": 1.12e5, "uninduced reporter light, run 1, well a": 9255}
{"Target gene": "CG17883", "amplicon": "DRSC07838", "induced reporter light, run 1, well a": 1.98e5, "induced reporter light, run 1, well b": 1.34e5, "control promoter light, run 1, well a": 3.23e5, "control promoter light, run 1, well b": 2.33e5, "uninduced reporter light, run 1, well a": 9085}
{"Target gene": "Gpxl (Glutathione peroxidase-like)", "amplicon": "DRSC06538", "induced reporter light, run 1, well a": 1.06e5, "induced reporter light, run 1, well b": 1.03e5, "control promoter light, run 1, well a": 1.36e5, "control promoter light, run 1, well b": 1.45e5, "uninduced reporter light, run 1, well a": 6875}
{"Target gene": "CG42615", "amplicon": "DRSC05121", "induced reporter light, run 1, well a": 42370, "induced reporter light, run 1, well b": 52285, "control promoter light, run 1, well a": 67905, "control promoter light, run 1, well b": 70275, "uninduced reporter light, run 1, well a": 2415}
{"Target gene": "Pldn (Pallidin)", "amplicon": "DRSC10137", "induced reporter light, run 1, well a": 1.10e5, "induced reporter light, run 1, well b": 1.55e5, "control promoter light, run 1, well a": 2.30e5, "control promoter light, run 1, well b": 1.99e5, "uninduced reporter light, run 1, well a": 5438}
{"Target gene": "CG34450", "amplicon": "DRSC17822", "induced reporter light, run 1, well a": 1.88e5, "induced reporter light, run 1, well b": 1.84e5, "control promoter light, run 1, well a": 2.24e5, "control promoter light, run 1, well b": 2.21e5, "uninduced reporter light, run 1, well a": 12810}
{"Target gene": "CG8249", "amplicon": "DRSC07125", "induced reporter light, run 1, well a": 1.28e5, "induced reporter light, run 1, well b": 88230, "control promoter light, run 1, well a": 1.25e5, "control promoter light, run 1, well b": 1.33e5, "uninduced reporter light, run 1, well a": 10550}
{"Target gene": "CG13138", "amplicon": "DRSC02235", "induced reporter light, run 1, well a": 1.03e5, "induced reporter light, run 1, well b": 1.25e5, "control promoter light, run 1, well a": 65455, "control promoter light, run 1, well b": 90385, "uninduced reporter light, run 1, well a": 15315}
{"Target gene": "Lectin-galC1 (Galactose-specific C-type lectin)", "amplicon": "DRSC03362", "induced reporter light, run 1, well a": 59390, "induced reporter light, run 1, well b": 35130, "control promoter light, run 1, well a": 43365, "control promoter light, run 1, well b": 67710, "uninduced reporter light, run 1, well a": 2770}
{"Target gene": "CG1628", "amplicon": "DRSC18109", "induced reporter light, run 1, well a": 1.82e5, "induced reporter light, run 1, well b": 1.36e5, "control promoter light, run 1, well a": 1.86e5, "control promoter light, run 1, well b": 1.98e5, "uninduced reporter light, run 1, well a": 9855}
{"Target gene": "side-VI (sidestep VI)", "amplicon": "DRSC12828", "induced reporter light, run 1, well a": 1.79e5, "induced reporter light, run 1, well b": 1.53e5, "control promoter light, run 1, well a": 1.66e5, "control promoter light, run 1, well b": 1.97e5, "uninduced reporter light, run 1, well a": 10890}
{"Target gene": "side-VI (sidestep VI)", "amplicon": "DRSC12830", "induced reporter light, run 1, well a": 1.51e5, "induced reporter light, run 1, well b": 1.30e5, "control promoter light, run 1, well a": 1.44e5, "control promoter light, run 1, well b": 1.52e5, "uninduced reporter light, run 1, well a": 12428}
{"Target gene": "side-VI (sidestep VI)", "amplicon": "DRSC14920", "induced reporter light, run 1, well a": 54885, "induced reporter light, run 1, well b": 58150, "control promoter light, run 1, well a": 79040, "control promoter light, run 1, well b": 55895, "uninduced reporter light, run 1, well a": 2345}
{"Target gene": "side-VI (sidestep VI)", "amplicon": "DRSC15624", "induced reporter light, run 1, well a": 56980, "induced reporter light, run 1, well b": 55610, "control promoter light, run 1, well a": 52325, "control promoter light, run 1, well b": 52875, "uninduced reporter light, run 1, well a": 3295}
{"Target gene": "Or42a (Odorant receptor 42a)", "amplicon": "DRSC04912", "induced reporter light, run 1, well a": 2.38e5, "induced reporter light, run 1, well b": 2.25e5, "control promoter light, run 1, well a": 2.71e5, "control promoter light, run 1, well b": 2.45e5, "uninduced reporter light, run 1, well a": 16605}
{"Target gene": "e(y)3 (enhancer of yellow 3)", "amplicon": "DRSC19450", "induced reporter light, run 1, well a": 1.53e5, "induced reporter light, run 1, well b": 2.11e5, "control promoter light, run 1, well a": 1.38e5, "control promoter light, run 1, well b": 1.00e5, "uninduced reporter light, run 1, well a": 12765}

Records listed so far whose target name starts with S or s:
{"Target gene": "side-VI (sidestep VI)", "amplicon": "DRSC12828", "induced reporter light, run 1, well a": 1.79e5, "induced reporter light, run 1, well b": 1.53e5, "control promoter light, run 1, well a": 1.66e5, "control promoter light, run 1, well b": 1.97e5, "uninduced reporter light, run 1, well a": 10890}
{"Target gene": "side-VI (sidestep VI)", "amplicon": "DRSC12830", "induced reporter light, run 1, well a": 1.51e5, "induced reporter light, run 1, well b": 1.30e5, "control promoter light, run 1, well a": 1.44e5, "control promoter light, run 1, well b": 1.52e5, "uninduced reporter light, run 1, well a": 12428}
{"Target gene": "side-VI (sidestep VI)", "amplicon": "DRSC14920", "induced reporter light, run 1, well a": 54885, "induced reporter light, run 1, well b": 58150, "control promoter light, run 1, well a": 79040, "control promoter light, run 1, well b": 55895, "uninduced reporter light, run 1, well a": 2345}
{"Target gene": "side-VI (sidestep VI)", "amplicon": "DRSC15624", "induced reporter light, run 1, well a": 56980, "induced reporter light, run 1, well b": 55610, "control promoter light, run 1, well a": 52325, "control promoter light, run 1, well b": 52875, "uninduced reporter light, run 1, well a": 3295}
